Test results: patent publication US20150030595A1
No constants are given. Whether binding was seen depends on the method and setting.

Target: α-tubulin
Experiment: immunoprecipitation from C2C12 lysate with B09, western blot for α-tubulin (negative control)

B1: human antibody B09 (full-length IgG) (antibody, V domains shown)
VH: QMQLVESGGRLVRPGGSLRLSCAASGFPFTSYAMNWVRQTPGKGLEWVSTITATSGKTYYADSVKGRFTISRDNSRNTLFLQMNSLRAEDTAVYYCVRGESCSGGACSDFDYWGQGALVTVSS
VL: QLVLTQPASVSGSPGQSVTISCTGTSSDIGRYNRVSWYQHHPGKAPKLILNDVTTRPSGFSNRFSGSKSGNTASLTISGLQAEDEADYSCGSYAGSYTYVFGTGTKVTVL
binding: no binding
